# Measured values as given in patent US11358930B2, “Selective potassium channel agonists” (University of Pittsburgh—Of the Commonwealth System of …, priority 2018, dated 2022).
# Some results were stated once for a whole list of compounds, not compound by compound.
# Legend:
# Format in all cases: cell-based
# Kv7.4 = target: T1, Kv7.4 (Homo sapiens, UniProt P56696); assay: Automated electrophysiology IonWorks Barracuda (IWB) agonist assay in HEK293 cells, Kv7.4
# T1 construct: expressed in transfected cells; host or cells: HEK293
# Method: (§1) Biological evaluation of the new analogs, including RL-81 as a positive standard was performed in the Eli Lilly Open Innovation Drug Discovery (OIDD) program (now discontinued; see https://openinnovation.lilly.com/dd/login.jsp). Ion channel agonistic potency was determined in a high-throughput assay using the automated electrophysiology IonWorks® Barracuda™ (IWB) platform (Molecular Devices, LLC) in HEK293 cells. The resulting 10-point concentration-response curves provide a measure of compound efficacy by determining the agonist concentration that doubles the conductance at the voltage leading to 15% channel activation (EC2x).
# Kv7.3/Kv7.5 = target: T2, Kv7.3/Kv7.5 (Homo sapiens, UniProt O43525+Q9NR82); assay: Automated electrophysiology IonWorks Barracuda (IWB) agonist assay in HEK293 cells, Kv7.3/Kv7.5
# T2 construct: expressed in transfected cells; host or cells: HEK293
# Method: as §1
# Kv7.2/Kv7.3 = target: T3, Kv7.2/Kv7.3 (Homo sapiens, UniProt O43525+O43526); assay: Automated electrophysiology IonWorks Barracuda (IWB) agonist assay in HEK293 cells, Kv7.2/Kv7.3; details: higher SI = better selectivity for Kv7.2/Kv7.3
# T3 construct: expressed in transfected cells; host or cells: HEK293
# Method: as §1
# Since the primary interest was in optimizing central (Kv7.2/Kv7.3) over peripheral Kv7.4/Kv7.5) tissue activities, a selectivity index (SI) was calculated as the inverse ratio of the EC2x values for these two channel types: SI=EC2x(Kv7.4/Kv7.5)/EC2×(Kv7.2/Kv7.3) The higher the SI ratio, the better the selectivity of the agent for the Kv7.2/Kv7.3 channels.
Compound,EC2x at Kv7.4 (Kv7.4),EC2x at Kv7.3/Kv7.5 (Kv7.3/Kv7.5),selectivity index SI = EC2x(Kv7.4/Kv7.5)/EC2x(Kv7.2/Kv7.3) (Kv7.2/Kv7.3)
"CC(C)OC(=O)Nc1ccc(NCc2ccc(C(F)(F)F)cc2)c(F)c1N [RL-32, Isopropyl (2-amino-3-fluoro-4-((4-(trifluoromethyl)benzyl)amino)phenyl)carbamate]",< 0.4 µM,< 0.4 µM,
"Nc1c(NC(=O)OC2CC2)ccc(NCc2ccc(C(F)(F)F)cc2)c1F [RL-56, Cyclopropyl (2-amino-3-fluoro-4-((4-(trifluoromethyl)benzyl)amino)phenyl)carbamate]",< 0.4 µM,< 0.4 µM,
"CCOC(=O)Nc1ccc(NCc2cccc(S(F)(F)(F)(F)F)c2)c(F)c1N [RL-02, Ethyl (2-amino-3-fluoro-4-((3-(pentafluoro-λ^6-sulfanyl)benzyl)amino)phenyl)carbamate]",0.2 to 0.6 µM,0.2 to 0.6 µM,
"Nc1c(NC(=O)OC2CC2)ccc(NCc2ccc(C(F)(F)F)cc2F)c1F [RL-35, Cyclopropyl (2-amino-3-fluoro-4-((2-fluoro-4-(trifluoromethyl)benzyl)amino)phenyl)carbamate]",,,< 1
"CCOC(=O)Nc1ccc(NCc2cccc(C(F)(F)F)c2)c(F)c1N [RL-73, Ethyl (2-amino-3-fluoro-4-((3-(trifluoromethyl)benzyl)amino)phenyl)carbamate]",0.2 to 0.6 µM,0.2 to 0.6 µM,
